Molecules are shown by their SMILES. Some of the results follow. No stated cut-off is given here; in the data, active = 150% or more and inactive = the rest. Many values rest on one well or one pass, so single values are uncertain.

This assay has as its system Staphylococcus aureus JE2-lux inside RAW 264.7 macrophages. Nature of the assay: intracellular bacterial bioluminescence relative to DMSO vehicle; higher = higher intracellular bacterial metabolic activity. The following applies: 10 µM; treatment time 4 h; gentamicin 50 µg/ml.
Regarding `CC(=O)C(C)n1c(CN2CCN(C(=O)c3ccco3)CC2)nc2c1c(=O)n(C)c(=O)n2C` (stereo unspecified), the intracellular bacterial bioluminescence was inactive: 91.4%.

For `Cc1nc(-c2ccccc2)c(CC(=O)NC(c2cccs2)C(C)C)s1` (stereo unspecified), the intracellular bacterial bioluminescence is inactive: 98.3%.

As to `Cc1ccccc1/N=c1\oc2ccc([N+](=O)[O-])cc2cc1C(N)=O`, the intracellular bacterial bioluminescence was inactive: 110%.

As to `CCN(C(=O)Cc1ccccc1OC)c1nc2c(s1)CCc1occc1-2`, the intracellular bacterial bioluminescence was inactive: 71.5%.

With `CC1CC(C)CN(c2cc(C(=O)O)c3cc(NC(=O)C4CCC4)ccc3n2)C1` (stereo unspecified), the intracellular bacterial bioluminescence was inactive: 111%.

On to `Cc1ccc2c(c1)c1c(n2CC(O)CN2C(=O)CNC2=O)C(=O)CCC1` (stereo unspecified), for which the intracellular bacterial bioluminescence was inactive: 119%.

`Cc1cc(C)n(-c2cc(N3CCN(c4ccccc4)CC3)ncn2)n1`: the intracellular bacterial bioluminescence is inactive: 51.1%.

With `COC(=O)c1ccc(NC(=O)CSc2nc3sc4c(c3c(=O)[nH]2)CCCC4)cc1`, the intracellular bacterial bioluminescence was inactive: 79.2%.

`O=C(Nc1sc2c(c1C(=O)NCCc1ccccc1)CCC2)c1cc(-c2cccs2)on1`: the intracellular bacterial bioluminescence was inactive: 98.1%.

Take `COC(=O)c1ccccc1NC(=O)CSc1nc2ccccc2s1`: the intracellular bacterial bioluminescence was inactive: 48.7%.

For the compound `Oc1c2c(nc3nc(Cc4ccc(Cl)cc4)nn13)CCCC2`, the intracellular bacterial bioluminescence was inactive: 72.5%.

As for `NC(=O)c1ccc(NC(=O)Cn2cc(S(=O)(=O)Cc3ccccc3)c3ccccc32)cc1`, the intracellular bacterial bioluminescence is inactive: 98.6%.

Take `O=S(=O)(Oc1ccc2oc3ccccc3c2c1)c1cccs1`: the intracellular bacterial bioluminescence was inactive: 26.3%.

On to `Cc1ccccc1/N=c1\scc(-c2cccs2)n1CCO`, for which the intracellular bacterial bioluminescence is inactive: 78.7%.

For the compound `COc1ccc(-c2nc3sc(CCNC(=O)C(=O)N4CCN(C(C)=O)CC4)c(C)n3n2)cc1`, the intracellular bacterial bioluminescence was inactive: 117%.

Consider `CCOc1ccc(NN=C2C(C)=NN=C2C)c([N+](=O)[O-])c1`, for which the intracellular bacterial bioluminescence was inactive: 114%.

`Cc1cccc(-c2nc3scc(CCNC(=O)C(=O)Nc4cccc([N+](=O)[O-])c4)n3n2)c1`: the intracellular bacterial bioluminescence is inactive: 111%.

Consider `CCC1CCCCN1C(=O)CCc1c(C)[nH]c2nc(NCc3ccc(Cl)cc3)nn2c1=O` (stereo unspecified), for which the intracellular bacterial bioluminescence was inactive: 113%.

Take `Cc1ccc2c(c1)NC(=O)c1cc(NS(=O)(=O)c3ccc4c(c3)OCCO4)ccc1O2`: the intracellular bacterial bioluminescence was inactive: 114%.

Turning to `CCOC(=O)c1cnn(-c2ccc(C(=O)Nc3ccccc3OCC)cn2)c1N`, the intracellular bacterial bioluminescence is inactive: 123%.

As to `CCc1ccc2c(c1)c1nnc(SCc3nnc(-c4ccccc4)o3)nc1n2C`, the intracellular bacterial bioluminescence was inactive: 93.1%.

For the compound `O=c1oc2cc(OCC(O)Cn3ccnc3)ccc2c2c1CCC2` (stereo unspecified), the intracellular bacterial bioluminescence was inactive: 71.4%.

On to `Cc1ccccc1N(CC(=O)NCc1ccc(F)cc1)C(=O)c1ccc(N2CCCC2)nc1`, for which the intracellular bacterial bioluminescence was inactive: 65.3%.

On to `CC(C)Oc1ccc(C(=O)C2=C(O)C(=O)N(Cc3cccnc3)C2c2cccc(O)c2)cc1` (stereo unspecified), for which the intracellular bacterial bioluminescence was inactive: 102%.

For `Cc1ccc(NC(=O)CC2Nc3ccc(C(F)(F)F)cc3NC2=O)c(C)c1` (stereo unspecified), the intracellular bacterial bioluminescence was inactive: 130%.

For the compound `Cc1nc2c(ccc3nc(Nc4nc5ccc(F)cc5s4)sc32)s1`, the intracellular bacterial bioluminescence is inactive: 94%.

On to `CCn1cc(C(=O)N2CCCC2c2nc(-c3ccncc3)n[nH]2)c(C)n1` (stereo unspecified), for which the intracellular bacterial bioluminescence is inactive: 127%.

As for `COc1ccc(-n2ccnc2SCC(=O)NCc2ccc3c(c2)OCO3)cc1`, the intracellular bacterial bioluminescence was inactive: 82.7%.

For the compound `COc1cc2nc(NCCCN3CCCC3=O)n3nc(-c4cccnc4)nc3c2cc1OC`, the intracellular bacterial bioluminescence was inactive: 77%.

In the case of `CC(C)n1c(SCC(=O)Nc2cccc(F)c2)nc2c(-c3ccccc3)cn(C)c2c1=O`, the intracellular bacterial bioluminescence is inactive: 57.8%.

As for `Cc1ccc(-c2cc(C(F)(F)F)n3nc(C(=O)NCc4ccco4)nc3n2)cc1`, the intracellular bacterial bioluminescence is inactive: 101%.

Consider `CCOc1ccc(-c2ccc(OCCNC(=O)c3sc(-c4ccccc4)nc3C)nn2)cc1`, for which the intracellular bacterial bioluminescence is inactive: 93%.

Consider `CCOC(=O)c1c(SCC(=O)c2ccc(Cl)cc2)nc(=O)[nH]c1C`, for which the intracellular bacterial bioluminescence is inactive: 79.5%.

Take `COc1ccccc1CNC(=O)c1sc2nc(-c3ccc(F)cc3)cn2c1C`: the intracellular bacterial bioluminescence is inactive: 98.2%.

Turning to `Cc1cc(C)cc(Oc2ncnc3oc(C)c(C)c23)c1`, the intracellular bacterial bioluminescence is inactive: 96.9%.

Consider `COc1ccc(CN(Cc2cc3cc(C)ccc3nc2Cl)C(=O)Nc2ccccc2)cc1`, for which the intracellular bacterial bioluminescence was inactive: 114%.

Regarding `CCOC(=O)C1CCN(c2cc3c(cc2NC(=O)c2cccc(C)c2)n(C)c(=O)n3C)CC1`, the intracellular bacterial bioluminescence is inactive: 127%.

Consider `COC(=O)c1cc(OC)c(OC)cc1NC(=O)c1cc2ccccc2oc1=O`, for which the intracellular bacterial bioluminescence was inactive: 131%.

As for `CCOc1ccc(NC(=O)CSC2=C(C#N)C(c3cccs3)C3=C(CC(C)(C)CC3=O)N2)cc1` (stereo unspecified), the intracellular bacterial bioluminescence was inactive: 18.6%.

As for `COCCNC(=O)c1c(N)n(/N=C/c2ccncc2)c2nc3ccccc3nc12`, the intracellular bacterial bioluminescence is inactive: 81.1%.

As to `O=C1CC(Nc2ccc(N3CCOCC3)cc2)C(=O)N1` (stereo unspecified), the intracellular bacterial bioluminescence was inactive: 113%.

`O=C(CC1Sc2ccccc2NC1=O)Nc1ccccc1F` (stereo unspecified): the intracellular bacterial bioluminescence is inactive: 104%.

Take `CCOC(=O)c1ccccc1NC(=O)CSc1nnc(C2CCCCC2)n1-n1cccc1`: the intracellular bacterial bioluminescence is inactive: 54.1%.

In the case of `CC(=O)C1=C(C)Nc2ncnn2C1c1ccc(C(C)C)cc1` (stereo unspecified), the intracellular bacterial bioluminescence was inactive: 99%.

`COc1ccc(Cn2c(C)nc3cc(Cl)c(NC(=O)c4ccncc4)cc3c2=O)cc1`: the intracellular bacterial bioluminescence is inactive: 110%.

Turning to `O=C(Nc1nc2ccc(F)cc2s1)c1ccc2c(c1)CCCC2`, the intracellular bacterial bioluminescence was inactive: 59.3%.

For the compound `CS(=O)(=O)Nc1cccc(C2=NN(C(=O)C3CCCCC3)C(c3cccc(F)c3)C2)c1` (stereo unspecified), the intracellular bacterial bioluminescence is inactive: 130%.

With `O=C(NNc1nc2c(F)cc(F)cc2s1)c1coc2ccccc2c1=O`, the intracellular bacterial bioluminescence is inactive: 81.7%.

As to `CCN(Cc1ccccc1)C(=O)CCN1C(=O)/C(=C\c2ccco2)SC1=S`, the intracellular bacterial bioluminescence is inactive: 45.7%.

On to `O=S1(=O)N=C(SCc2cccc(F)c2)Nc2ccc(Cl)cc21`, for which the intracellular bacterial bioluminescence is inactive: 129%.

Take `CC(=O)N1CCc2cc(NC(=O)CSc3nnc4ccccn34)ccc21`: the intracellular bacterial bioluminescence was inactive: 77.9%.

In the case of `CC(C)c1cc(C(=O)Nc2cccc(-c3nc4ccccc4o3)c2)nn1C1CCS(=O)(=O)C1` (stereo unspecified), the intracellular bacterial bioluminescence is inactive: 57.8%.

For `NC(=O)c1ccsc1NC(=O)c1sc2ccccc2c1Cl`, the intracellular bacterial bioluminescence was inactive: 105%.

For `CCOC(=O)Cc1ccc(NC(=O)Nc2ccc(Sc3c(CC)c(C)nc4ncnn34)cc2)cc1`, the intracellular bacterial bioluminescence was inactive: 51.8%.

As for `COc1cc(C(=O)Nc2cccc(C(=O)N3CCCCC3)c2)c2ccccc2n1`, the intracellular bacterial bioluminescence was inactive: 94.3%.

With `Cn1c(=O)c2c(nc(NCc3cccnc3)n2CC(=O)c2ccccc2)n(C)c1=O`, the intracellular bacterial bioluminescence is inactive: 117%.

As to `Cc1ccc(-c2nnn3c2nc(NCc2ccc4c(c2)OCO4)c2ccccc23)cc1`, the intracellular bacterial bioluminescence is inactive: 83.1%.

As to `N#Cc1c(NC(=O)c2ccc(-c3nc4ccccc4s3)s2)sc2c1CCC2`, the intracellular bacterial bioluminescence is inactive: 102%.

Consider `CCOC(=O)c1c(NC(=S)NC(=O)c2ccc(C(=O)OC)cc2)sc(OC(=O)CC)c1C`, for which the intracellular bacterial bioluminescence was inactive: 106%.

For the compound `CCC(=O)Nc1cccnc1-c1ccc(C(=O)Nc2ccc(OC)cc2OC)cc1`, the intracellular bacterial bioluminescence was inactive: 98.7%.

Take `Cc1oc2ncnc(N3CCC(C(=O)NCCc4ccccc4Cl)CC3)c2c1C`: the intracellular bacterial bioluminescence is inactive: 94.2%.

For `O=C(OC1CCCCC1)c1cc2ccccc2oc1=O`, the intracellular bacterial bioluminescence was inactive: 131%.

As to `Cc1ccc(-c2c(C(F)(F)F)nn3c(NCCN(C)C)cc(C)nc23)cc1`, the intracellular bacterial bioluminescence was inactive: 119%.

In the case of `Cc1ccc(C(=O)CSc2nnc3[nH]c(=O)c(C)nn23)cc1C`, the intracellular bacterial bioluminescence was inactive: 110%.

Consider `CC(Cn1cnc2ccccc21)C(=O)N/N=C1/C(=O)Nc2ccccc21` (stereo unspecified), for which the intracellular bacterial bioluminescence is inactive: 88%.

As for `CC(=O)c1csc(NC(=O)c2cc3ncc(C(C)=O)c(C)n3n2)n1`, the intracellular bacterial bioluminescence is inactive: 149%.

Regarding `CCOC(=O)c1nn(-c2ccc(Cl)c(Cl)c2)cc1O`, the intracellular bacterial bioluminescence is inactive: 99.3%.

In the case of `Nn1c(-c2ccncc2)nn2c(=O)c3ccccc3nc12`, the intracellular bacterial bioluminescence was inactive: 101%.

For `CC(C)c1ccc2nc3sc(C(=O)N4CC(=O)Nc5ccccc54)c(N)c3cc2c1`, the intracellular bacterial bioluminescence was inactive: 74.5%.

Take `Cc1cc(C)cc(NC(=O)NCc2ccnc(N3CCCCC3)c2)c1`: the intracellular bacterial bioluminescence was inactive: 56.9%.

For the compound `Clc1cccc(/C=N/Nc2ncnc3[nH]cnc23)c1`, the intracellular bacterial bioluminescence is inactive: 112%.

In the case of `CC(=O)/N=c1\sccn1CC(=O)c1ccc([N+](=O)[O-])cc1`, the intracellular bacterial bioluminescence was inactive: 97.7%.

With `O=C(Nc1cccc(Br)c1)c1cccc2nc3ccccc3nc12`, the intracellular bacterial bioluminescence is inactive: 124%.

Take `CCCCCCC1C(C#N)=C(N)OC2=C1C(=O)CC(C)(C)C2` (stereo unspecified): the intracellular bacterial bioluminescence was inactive: 89.7%.

As for `O=C(CCc1ccccc1)Nc1nc2c(s1)CSc1ccccc1-2`, the intracellular bacterial bioluminescence is inactive: 81.7%.

Regarding `O=C(COc1ccc(Cl)cc1Cl)NCC(=O)N/N=C/c1cccs1`, the intracellular bacterial bioluminescence was inactive: 94.3%.

Turning to `Cc1ccn2cc(CCNS(=O)(=O)c3ccc([N+](=O)[O-])cc3)nc2c1`, the intracellular bacterial bioluminescence is inactive: 89.4%.

In the case of `COc1ccc(CCNC(=O)CSc2ncnc3[nH]ncc23)cc1OC`, the intracellular bacterial bioluminescence is inactive: 92.2%.

Consider `CCOC(=O)c1ccc(NC(=O)CSc2nccnc2N2CCN(c3ccccc3)CC2)cc1`, for which the intracellular bacterial bioluminescence was inactive: 77.3%.

For the compound `Cc1ccc(-c2nc3nc(C)cc(NCCO)n3n2)cc1`, the intracellular bacterial bioluminescence is inactive: 95.9%.

Consider `Cc1ccc(C2=N/C(=C/c3ccc([N+](=O)[O-])cc3)C(=O)O2)cc1`, for which the intracellular bacterial bioluminescence is inactive: 101%.

Regarding `Cc1ccc(-c2nc(CN3CCC(C(=O)Nc4ncccc4O)CC3)no2)cc1`, the intracellular bacterial bioluminescence is inactive: 123%.

`Cc1ccc2c(c1)NC(=O)c1cc(NS(=O)(=O)c3ccc(C)c(Cl)c3)ccc1O2`: the intracellular bacterial bioluminescence was inactive: 110%.

As to `N#Cc1cc2cc3c(cc2nc1SCC(=O)Nc1ccc(F)c(Cl)c1)OCO3`, the intracellular bacterial bioluminescence was inactive: 110%.

`O=C(CCn1c(=S)oc2ccccc21)Nc1ccc(F)cc1`: the intracellular bacterial bioluminescence was inactive: 100%.

Regarding `O=C1c2oc3ccc(Cl)cc3c(=O)c2C(c2cccnc2)N1Cc1ccco1` (stereo unspecified), the intracellular bacterial bioluminescence was inactive: 90.2%.

Take `Cc1nnc(NC(=O)c2cc(Cl)ccc2Cl)s1`: the intracellular bacterial bioluminescence is inactive: 92.9%.

For the compound `COc1cc([N+](=O)[O-])cc2sc(NC(=O)c3ccc(N4C(=O)CCC4=O)cc3)nc12`, the intracellular bacterial bioluminescence was inactive: 97.3%.

Regarding `O=C(CSC1=NS(=O)(=O)c2ccccc2N1)N1CCCC1`, the intracellular bacterial bioluminescence is inactive: 136%.

Turning to `COC(=O)C1CCN(C(c2cccs2)c2sc3ncnn3c2O)CC1` (stereo unspecified), the intracellular bacterial bioluminescence is inactive: 82.5%.

On to `CCOc1ccc2nc(-n3nc(C)c4c3NC(=O)CC4c3ccc([N+](=O)[O-])s3)sc2c1` (stereo unspecified), for which the intracellular bacterial bioluminescence is inactive: 87.3%.

The values above are taken from the supplement of paper PMC12578635.
